Screening data, single-dose tests

Measurements from “University of Dundee, Small-Polar-MMV Screening Library” (2021), ChEMBL document CHEMBL3988442.

Mtb cholesterol medium: 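Whole-cell growth test on Mycobacterium tuberculosis, read after 4 days in a medium based on cholesterol and the lipid DPPC; the read-out is not stated. Compounds at 50 µM. Higher reads as more growth inhibition (inferred: compounds with an IC50 in retests scored well above the rest). Size under these conditions: about 69,000 compounds, about 370 of them at 50% or above in at least one test.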
Mtb glucose medium: 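Whole-cell growth test on Mycobacterium tuberculosis, read after 3 days in glucose-containing 7H9 medium; the read-out is not stated. Concentration: 50 µM. The record gives no direction; compounds that gave an IC50 in retests scored well above the rest, so higher reads as more growth inhibition. Of about 69,000 compounds tested this way, about 760 (1.1%) reached 50% or more in at least one test.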

Each number is a percent effect as filed.
How 0% and 100% were set is not recorded. Most values in the screen are low, and negative values occur.
Compounds were drawn at random from those tested, without regard to their results.
Two or more numbers in one place are separate tests of the same structure; such repeats can differ widely.

compound,Mtb cholesterol medium,Mtb glucose medium
CCS(=O)(=O)CCNC(=O)NC(C)c1ccc(C)s1 (stereo not shown),-0.6662%,2.398%
CN(Cc1ccccc1)CC1CC2(CO1)CN(c1nncs1)C2 (stereo not shown),9.451% and -9.633%,-4.308% and -8.482%
Cc1cnc(NCCCN2CCCCC2CO)nc1 (stereo not shown),-20.92%,14.81%
O=C(NCCCO)C1(N2CCCCC2)Cc2ccccc2C1,-6.614%,-33.65%
CN(Cc1ccncc1)c1cncc(Br)c1,22.79%,24.4%
Cn1cc(Br)c(=O)c(NS(=O)(=O)c2ccc(F)cc2)c1,25.94%,16.04%
CN(C)c1nccc(-c2c[nH][nH]c2=O)n1,-5.886%,5.172%
CC1(NC(=O)Cc2cccs2)CCS(=O)(=O)C1 (stereo not shown),-11.7%,18.85%
O=C(NCc1nc(-c2ncccn2)no1)c1ccc(C2CCCO2)s1 (stereo not shown),-14.88%,-24.12%
CCN(C)C(=O)c1cc(-c2cn(C(C)C)cn2)n2ccccc12,21.45%,-6.116% and -49.17%
Cc1ccc(N2CCCC3(CCN(C(=O)C4CC4)C3)C2)nn1 (stereo not shown),0.8202%,-7.573%
CC(=O)N1CCc2[nH]c(=O)ccc2C1,-0.23%,-0.08398% and -14.83%
Cn1cccc(NC(=O)N2CCC(COCc3ccccc3)C2)c1=O (stereo not shown),37.85%,30.09%
CCOCCN1CCCC1CS(N)(=O)=O (stereo not shown),0.09235%,34.77%
CCOCc1nc(-c2cccc(OC)c2OC)n(C2CCN(C)CC2)n1,-31.37%,-5.315% and -9.126%
CCc1sc(-c2nnc(CNC(C)Cn3cc(C)cn3)o2)cc1C (stereo not shown),-11.31%,27.12% and 4.907%
O=C(CCOc1ccccc1)NS(=O)(=O)Cc1ccccc1,-16.6%,-14.71%
CCc1nc(C2CCCN2C(=O)c2ccc(N3CCCC3)nn2)no1 (stereo not shown),4.704%,0.8924%
O=C(O)C(F)(F)F.O=C(O)C(F)(F)F.[H][C@@]12CCN(Cc3ccsc3)C[C@@]1([H])O[C@@H](C(=O)Nc1cccnc1C)C2,-9.699%,-2.785%
CCc1noc(CN(CC)C(=O)CC2C(=O)NCCN2CC=C(C)C)n1 (stereo not shown),-5.859%,-17.51%
FC(F)(F)c1ccc(-c2c[nH]c([C@@H]3COCCN3)n2)cc1,2.167%,39.33% and 22.42%
NCc1cnn(-c2ccccc2C(=O)N2CCCC(C(N)=O)C2)c1 (stereo not shown),5.401%,5.405%
CC(C)Oc1cccc(C(=O)C2CCCN(C(=O)c3ccnn3C)C2)c1 (stereo not shown),-0.5837%,-10.13%
Cn1cnc2c1C(COCc1ccccc1)N(Cc1cccnc1)CC2.O=C(O)C(F)(F)F.O=C(O)C(F)(F)F.O=C(O)C(F)(F)F (stereo not shown),0.9921%,11.61% and 6.035%
O=C(O)c1cccc(CN2CCCC(Cc3ccn[nH]3)C2)c1 (stereo not shown),-1.073% and 10.3%,-2.152%
CC(C)NC(=O)C1(Cc2ccccc2-c2cccs2)CCNC1 (stereo not shown),2.448%,12.58%
[H][C@@]12CS(=O)(=O)C[C@]1([H])NCCN2C(=O)COc1ccc(C)nc1,4.63%,27.73% and 1.204%
c1cncc(-c2c[nH]c([C@@H]3COCCN3Cc3ccncc3)n2)c1,7.914%,-0.1905% and 5.724%
CCOc1ccc(C(C)NC(=O)N2CCC(C(N)=O)CC2)cc1OC (stereo not shown),17.44%,-27.2%
Cc1[nH]c(C2(N)CCCCC2)nc(=O)c1C.Cl,15.5%,-5.82%
CCC(C)N(Cc1ccncc1)C(=O)CCSC (stereo not shown),-5.133%,-1.941%
CC(C)(C)NC(=O)CCOc1cccc(F)c1,-1.04%,-2.222%
COCC1CN(C(=O)c2ccco2)Cc2cn(C)nc21.O=C(O)C(F)(F)F (stereo not shown),-8.453% and -30.57%,-4.401% and -13.53%
CC(NC(=O)N1CCC(CC(N)=O)CC1)c1csc2ccccc12 (stereo not shown),-9.97%,0.3561%
C[S+]([O-])c1nncn1CC(=O)c1cccc(Br)c1 (stereo not shown),-2.587%,4.554% and -4.245%
CCc1nc(C)sc1CN1C[C@@H](C)[C@@](C)(O)C1,-1.05%,10.74%
O=C(CNc1ccc(OCC2CCOCC2)cc1)NCc1ccco1,16.41%,6.732%
O=C1CCC2(CCCN(C(=O)c3ccoc3)C2)CN1Cc1ccncc1 (stereo not shown),-1.594% and 6.206%,-10.67%
COCCN1CCC(NCc2ccc(Cl)cc2)C1 (stereo not shown),-3.096%,20.83%
O=C(c1ccc(CN2CCCCC2)cc1)N1Cc2cnn(CCO)c2C1,2.379%,-38.89% and -7.488%
CCC(=O)Nc1nnc(CCOc2cccc(OC)c2)s1,-11.2%,11.83%
Cc1cc(C2CCCN2Cc2ccn(C)c(=O)c2)no1 (stereo not shown),-4.318%,-2.963%
O=C(c1cccc(CNCC2CNc3ccnn3C2)c1)N1CCCC1 (stereo not shown),-9.871%,-20.76%
Cc1cc(CN2CCN(C(=O)Nc3cccnc3)CC2)on1,-21.48%,-5.607%
Cc1cccc2[nH]c(C3CCN(C(=O)c4cnc(O)cc4O)CC3)nc12,-3.337% and -28.42%,-27.9%
COc1cccc(C(=O)N2CCN(C(=O)CCn3ccnc3)CC2)c1,1.014%,1.782%
O=C(O)C(F)(F)F.[H][C@@]12OCCN(c3ncccn3)[C@@]1([H])CC[C@H]2OCC(=O)N1CCCC1,22.61%,-3.342% and -1.294%
[H][C@]12CCN(C(=O)NC)CC[C@@]1([H])S(=O)(=O)N(Cc1cccc(OC)c1)C2,-5.276%,-33.5%
c1ncn(CC2CN(Cc3ccc4c(c3)OCCO4)CCO2)n1 (stereo not shown),-8.011%,-6.25%
FC(F)(F)c1cccc(OC2CCN(Cc3c[nH]cn3)CC2)c1,-46.2%,-32.79%
NC(=O)c1csc(N2CCN(Cc3cccc4nsnc34)CC2)n1,12.46%,39.18%
Cc1noc(C)c1CN1CCc2ncc(CN3CCCC3)n2CC1.O=C(O)C(F)(F)F.O=C(O)C(F)(F)F,-4.234%,0.3124% and -4.349%
CC(C)Oc1ncnc2c1CCN(Cc1ccco1)CC2.O=C(O)C(F)(F)F,-2.514%,2.151% and -0.03843%
Cc1cc(NC(=O)CNCc2csc(-c3ncccn3)n2)ccc1Cl,-2.219%,15.89%
CCc1nc(CN2CCCN(C(=O)C(C)COC)CC2)cs1 (stereo not shown),-7.18%,12.46%
Cc1nn(C)cc1C(=O)N1CCC(CSc2ccccc2)C1 (stereo not shown),9.345%,18.89%
Cc1ccc(O)c(CN2CCc3nc(-c4cccnc4)nc(O)c3C2)c1,5.46%,-2.725%
CC(Cn1cccn1)NC(=O)N1CCN(Cc2ccncc2)CC1 (stereo not shown),-28.15%,-16.7%
O=C(CN1CCN(c2ccnc3c(F)ccc(F)c23)CC1)N1CCCC1,-1.493%,3.539% and 6.499%